These results are taken from patent US20140039803A1, “Method for Rapid Identification of Drug Targets and Drug Mechanisms of Action in Human Cells” (THE ROCKEFELLER UNIVERSITY, priority 2011, published 2014).

In this data set the test system is Kinesin-5. The experiment in a line: RT-PCR and sequencing of target gene in resistant clones. The arrangement: species or system human. To be noted: HCT-116 clones resistant to the inhibitor.

For the molecule `N[C@@H](CSC(c1ccccc1)(c1ccccc1)c1ccccc1)C(=O)O` [STLC, S-trityl-L-cysteine], the “fraction of resistant clones with kinesin-5 mutations” value is roughly 30%. In the case of `c1ccc(C2(c3nc(-c4ccncc4)cs3)CC2)cc1` [PCTP, 4-(2-(1-phenylcyclopropyl)thiazol-4-yl)pyridine] it was roughly 15%.
